# Primary screen of a compound library

Sequences of proteins named here, by UniProt entry; tags and fusion partners are left off. Residues count along the entry.
UniProt A4I591, 1-473: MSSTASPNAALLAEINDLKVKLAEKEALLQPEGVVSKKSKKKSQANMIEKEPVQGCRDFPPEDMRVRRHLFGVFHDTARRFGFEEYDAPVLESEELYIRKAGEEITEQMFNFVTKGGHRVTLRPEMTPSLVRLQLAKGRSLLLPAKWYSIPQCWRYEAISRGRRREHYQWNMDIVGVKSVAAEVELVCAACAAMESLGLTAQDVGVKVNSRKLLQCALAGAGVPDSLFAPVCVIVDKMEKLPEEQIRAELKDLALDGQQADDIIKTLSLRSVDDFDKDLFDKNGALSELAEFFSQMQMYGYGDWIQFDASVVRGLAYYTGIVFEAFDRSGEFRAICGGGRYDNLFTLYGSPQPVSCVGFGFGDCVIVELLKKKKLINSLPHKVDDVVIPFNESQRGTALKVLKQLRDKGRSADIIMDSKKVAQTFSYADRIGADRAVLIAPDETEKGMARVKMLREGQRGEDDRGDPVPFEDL

Measurements from “University of Dundee, Small-Polar-MMV Screening Library” (2021), ChEMBL document CHEMBL3988442.

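Enzyme assay of histidyl-tRNA synthetase; the read-out is not stated. Target: Histidine-tRNA ligase, Leishmania infantum (UniProt A4I591). Concentration: 30 µM. Direction is inferred from retests: higher values go with stronger inhibition. The assay is labelled LdHisRS but filed under L. infantum. About 69,000 compounds were tested under these conditions; 0.6% (about 410) showed 50% or more at least once.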

The filed quantity is “Percent Effect” (%).
The record does not define 0% and 100%; most values in the screen are far below 50% and negative numbers occur (in some assays of this library far below -100).
This is an unselected part of the compounds tested.

| structure | Percent Effect |
|---|---|
| `CCOCC(O)c1nc2c([nH]1)CC(C)(C)CNC2=O` (stereo not given) | 6.522% |
| `COc1cc(OC)cc(C2CC(=O)Nc3c2nc2n3CCCC2)c1` (stereo not given) | 15.29% |
| `Cc1ccoc1C(=O)NCC(c1ccccc1Cl)N1CCOCC1` (stereo not given) | 26.03% |
| `COCC1CC2(CCN(Cc3ccoc3)CC2)CN1C(C)C` (stereo not given) | 3.636% |
| `CCn1cc(CN(C)C(=O)C(c2ccccc2C)N(C)C)cn1` (stereo not given) | 16.42% |
| `O=C(Cc1csc(N2CCNC2=O)n1)NC1(c2ccccc2)CCC1` | 13.13% |
| `CC(C)OCc1ncn2c1CN(CC1CC1)CCC2` | 17.65% |
| `COc1ccccc1[C@@H]1CN(Cc2csc(C(C)=O)c2)C[C@H]1C(=O)O` | 24.24% |
| `CC(C)Nc1ncnc2c1CCN(C(=O)CN(C)C)CC2` | 13.76% |
| `O=C(C1CCOC1)N1Cc2ccccc2OC2(CCOCC2)C1` (stereo not given) | 5.674% |
| `Cn1nc(C2CNCCO2)cc1CCOc1ccc(C(F)(F)F)cc1` (stereo not given) | 14.18% |
| `CCO[C@H]1CN(C)C[C@@H]1NC(=O)c1cc(C)nc2c(C)c(C)ccc12` | 9.836% |
| `CNCc1cn(C2CCN(CCC(C)c3ccccc3)CC2)nn1` (stereo not given) | 15.38% |
| `CCN1CCC(NC(=O)CN2CC(n3nc(C)cc3C)C2)CC1` | 13.04% |
| `Cc1csc([C@@H]2C[C@@H]3CCN(C(=O)c4cc(C)on4)C[C@H]3O2)n1` | 18.45% |
| `O=C(c1cnn[nH]1)N1CCCC1c1nc2cc(F)ccc2[nH]1` (stereo not given) | 20.99% |
| `Cc1cccc(NC(=O)CN(C)C(=O)c2ccc(OC(C)C)nc2)n1` | 16.24% |
| `CS(=O)(=O)c1nnc(NC(=O)CCc2ccc(Cl)s2)[nH]1` | 20.18% |
| `CNC(=O)c1cn[nH]c1C1(C)CCCN(Cc2nccn2C(C)C)C1` (stereo not given) | -11.58% |
| `Cc1ccc(C(C)N(C)Cc2nc3c(cnn3C)c(=O)[nH]2)cc1` (stereo not given) | 18.46% |
| `Cc1ccc(C(=O)NCCC2CN(c3cnn(C)c(=O)c3)CCO2)s1` (stereo not given) | 15.96% |
| `Cc1ccc(O)c(CNCC(C)c2nc3ccccc3o2)n1` (stereo not given) | 11.71% |
| `O=C(Cc1cc2c(cc1Br)OCCO2)NC1CCS(=O)(=O)C1` (stereo not given) | 5.172% |
| `O=C(CCNC(=O)NC1CCN(C2CC2)CC1)NCc1ccccc1` | 11.11% |
| `COCC(=O)N[C@@H]1CN(Cc2ccc3c(c2)OCCO3)C[C@H]1O` | 13.1% |
| `CC(C)(C)N1CC(C(=O)N2CCN(CCn3cncn3)CC2)CC1=O` (stereo not given) | 18.18% |
| `CC(C)c1nn2c(-c3cnn(C)c3)nnc2s1` | -58.7% |
| `CN1CCOC(c2cncc(CCC(=O)N(C)C)n2)C1` (stereo not given) | 8.451% |
| `Fc1ccc(OCCNCCn2cccn2)cc1` | 11.3% |
| `O=C(NC1CCC1)[C@@H]1C[C@@H]2CCN(CCc3ccccc3)C[C@H]2O1` | 15% |
| `O=C(c1ccco1)N1C[C@@H]2[C@@H](C1)OCC(=O)N2Cc1cccnc1` | 20.35% |
| `O=C(CCCc1nnc(-c2ccccc2)o1)N1CCN(CCO)CC1` | -3.371% |
| `OC1(CNCCSc2ccccn2)CNCCOC1` (stereo not given) | 8.065% |
| `COc1ccccc1OCCNCCn1cccn1` | 14.78% |
| `COC(=O)[C@@H](NC(=O)c1snnc1-c1ccc(OC)cc1)C(C)C` | 16.85% |
| `CN(Cc1ccco1)[C@@H]1CN(Cc2ccc(F)cc2)C[C@@H]2CCCO[C@@H]21` | 17.65% |
| `Cc1nc(Nc2nccs2)cc(C2CCCN2C2CCOCC2)n1` (stereo not given) | 16.67% |
| `CC[C@H]1CN2CC[C@H]1C[C@@H]2CNC(=O)Nc1cccc(C(F)(F)F)c1` | 19.44% |
| `O=C(c1ccc(S(=O)(=O)NCc2ccncc2)cc1)N1CCNCC1` | -90.16% |
| `O=C(Cn1ccc2ccccc21)Nc1cc(N2CCCC2)ncn1` | 8.696% |
| `CN(C)CCN1CCC(NC2CSCCc3ccccc32)CC1` (stereo not given) | 18.33% |
| `O=S(=O)(NC1=NCN(CCc2cccs2)CN1)c1ccccc1` | 11.65% |
| `CN(C(=O)c1cccnc1)C1CCCN(CCc2ccccc2)C1` (stereo not given) | -1.639% |
| `O=C(NCC1CC(=O)N(CCc2ccccc2)C1)c1ccc[nH]1` (stereo not given) | 19.44% |
| `O=C(Cc1c(F)cccc1Cl)N1CCC(Nc2cccnn2)CC1` | 19.64% |
| `CC(=O)NCc1noc2c1CN(Cc1ccsc1)CC2` | 20.51% |
| `CNC(=O)CCc1cc(C)nc(C2CCN(c3cnccn3)CC2)c1` | 8.633% |
| `COc1ccc(COCC(O)CN2CCC(c3ccn[nH]3)CC2)cc1` (stereo not given) | 18.64% |
| `COCCOc1ccc(CNc2nc3ccccc3o2)cn1` | 14.29% |
| `O=C(COCC1CCCO1)N(Cc1cccnc1)c1ccc(F)cc1` (stereo not given) | 3.529% |
| `CC(C)(C)C(C#N)NC(=O)c1ccc(Oc2cccnc2)cc1` (stereo not given) | 6.667% |
| `CCc1noc(C)c1C(=O)NCC(c1ccc(C)cc1)N(C)C` (stereo not given) | 11.01% |
| `Cc1cc(C)c(CNC(=O)NCC(O)c2ccccc2)c(=O)[nH]1` (stereo not given) | 11.4% |
| `CC(=O)NCCNC(=O)c1sc(-c2ccc(Cl)s2)nc1C` | -15.38% |
| `CNc1cc2c(nn1)CCN(C(=O)c1ccc(-n3cccn3)nc1)C2` | 20.48% |
| `COc1cccc(-c2n[nH]cc2-c2nc(CN3CCCC3)no2)c1` | 13.95% |
| `Cc1ccoc1C(=O)N1CC[C@H]2OCC[C@@]2(COCc2ccncc2)C1` | 24.27% |
| `COC(=O)c1ccc(N2CCN(C(=O)c3cc(C)on3)C(C)C2)cc1` (stereo not given) | -28.09% |
| `Cc1n[nH]c(C2CN(CC(=O)NCCC3=CCCCC3)CCO2)n1` (stereo not given) | 24.69% |
| `Cn1cnnc1CN1CCC2(CCCN(C3CCCCC3)C2=O)C1` (stereo not given) | 18.09% |
| `CC(=O)N(C)c1nc(CN2CCN(c3nccs3)CC2)cs1` | 11.2% |
| `CNC(=O)c1cccc(CCNc2ncc(Br)cn2)c1` | 12.7% |
| `N#Cc1cnn(-c2ccc(C(=O)Nc3ccccn3)cc2)c1N` | 3.371% |
| `CCN1CCCC(CNC(=O)C2(c3cccc(Cl)c3)CC2)C1` (stereo not given) | 21.62% |
| `COC[C@]12COC[C@H]1CN(Cc1cccnc1OC)C2` | 13.59% |
| `CCn1nc(C)cc1S(=O)(=O)N1CCC2(CC(=O)NC2=O)C1` (stereo not given) | 16.13% |
| `O=C(c1cccc(CO)n1)N1CCOC(c2ccc(Cl)c(Cl)c2)C1` (stereo not given) | 12.7% |
| `Cc1nn(C)c(Cl)c1C1CCCN1CCc1ccccn1` (stereo not given) | 2.703% |
| `Cc1ccc(NC2CCN(C(=O)C(C(C)C)n3cncn3)CC2)nn1` (stereo not given) | 3.571% |

The last 9 entries again:

{"structure": "CC(=O)N(C)c1nc(CN2CCN(c3nccs3)CC2)cs1", "Percent Effect": 11.2}
{"structure": "CNC(=O)c1cccc(CCNc2ncc(Br)cn2)c1", "Percent Effect": 12.7}
{"structure": "N#Cc1cnn(-c2ccc(C(=O)Nc3ccccn3)cc2)c1N", "Percent Effect": 3.371}
{"structure": "CCN1CCCC(CNC(=O)C2(c3cccc(Cl)c3)CC2)C1", "stereo": "stereo not given", "Percent Effect": 21.62}
{"structure": "COC[C@]12COC[C@H]1CN(Cc1cccnc1OC)C2", "Percent Effect": 13.59}
{"structure": "CCn1nc(C)cc1S(=O)(=O)N1CCC2(CC(=O)NC2=O)C1", "stereo": "stereo not given", "Percent Effect": 16.13}
{"structure": "O=C(c1cccc(CO)n1)N1CCOC(c2ccc(Cl)c(Cl)c2)C1", "stereo": "stereo not given", "Percent Effect": 12.7}
{"structure": "Cc1nn(C)c(Cl)c1C1CCCN1CCc1ccccn1", "stereo": "stereo not given", "Percent Effect": 2.703}
{"structure": "Cc1ccc(NC2CCN(C(=O)C(C(C)C)n3cncn3)CC2)nn1", "stereo": "stereo not given", "Percent Effect": 3.571}